The filed quantity is “Percent Effect” (%).
The record does not define 0% and 100%; most values in the screen are far below 50% and negative numbers occur (in some assays of this library far below -100).
The compounds are a random part of those screened.
A dash means the value is not listed here; it may have been measured.

Chains of the proteins cited; added tags and fusions are not shown.
UniProt P9WNZ1, whole entry: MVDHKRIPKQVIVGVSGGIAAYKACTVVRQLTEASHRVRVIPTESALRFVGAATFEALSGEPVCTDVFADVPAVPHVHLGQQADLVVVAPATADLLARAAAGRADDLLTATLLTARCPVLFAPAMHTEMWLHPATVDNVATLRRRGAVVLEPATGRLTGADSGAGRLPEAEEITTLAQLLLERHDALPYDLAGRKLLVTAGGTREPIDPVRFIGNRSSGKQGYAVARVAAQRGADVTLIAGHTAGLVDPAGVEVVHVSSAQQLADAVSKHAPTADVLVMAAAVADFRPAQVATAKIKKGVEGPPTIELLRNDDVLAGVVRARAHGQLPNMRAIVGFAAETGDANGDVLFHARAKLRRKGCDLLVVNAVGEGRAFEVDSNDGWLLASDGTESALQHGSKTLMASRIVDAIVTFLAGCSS
UniProt P9WFT3, whole entry: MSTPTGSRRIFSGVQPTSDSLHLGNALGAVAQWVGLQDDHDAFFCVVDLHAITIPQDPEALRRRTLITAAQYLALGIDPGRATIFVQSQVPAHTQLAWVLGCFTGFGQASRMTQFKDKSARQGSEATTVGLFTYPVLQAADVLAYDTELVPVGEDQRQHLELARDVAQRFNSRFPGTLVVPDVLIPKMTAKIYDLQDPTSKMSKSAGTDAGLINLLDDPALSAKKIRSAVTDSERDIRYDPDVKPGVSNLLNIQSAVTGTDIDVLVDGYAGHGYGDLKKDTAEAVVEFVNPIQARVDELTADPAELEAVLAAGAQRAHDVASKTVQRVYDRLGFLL
UniProt I6X8D2, whole entry: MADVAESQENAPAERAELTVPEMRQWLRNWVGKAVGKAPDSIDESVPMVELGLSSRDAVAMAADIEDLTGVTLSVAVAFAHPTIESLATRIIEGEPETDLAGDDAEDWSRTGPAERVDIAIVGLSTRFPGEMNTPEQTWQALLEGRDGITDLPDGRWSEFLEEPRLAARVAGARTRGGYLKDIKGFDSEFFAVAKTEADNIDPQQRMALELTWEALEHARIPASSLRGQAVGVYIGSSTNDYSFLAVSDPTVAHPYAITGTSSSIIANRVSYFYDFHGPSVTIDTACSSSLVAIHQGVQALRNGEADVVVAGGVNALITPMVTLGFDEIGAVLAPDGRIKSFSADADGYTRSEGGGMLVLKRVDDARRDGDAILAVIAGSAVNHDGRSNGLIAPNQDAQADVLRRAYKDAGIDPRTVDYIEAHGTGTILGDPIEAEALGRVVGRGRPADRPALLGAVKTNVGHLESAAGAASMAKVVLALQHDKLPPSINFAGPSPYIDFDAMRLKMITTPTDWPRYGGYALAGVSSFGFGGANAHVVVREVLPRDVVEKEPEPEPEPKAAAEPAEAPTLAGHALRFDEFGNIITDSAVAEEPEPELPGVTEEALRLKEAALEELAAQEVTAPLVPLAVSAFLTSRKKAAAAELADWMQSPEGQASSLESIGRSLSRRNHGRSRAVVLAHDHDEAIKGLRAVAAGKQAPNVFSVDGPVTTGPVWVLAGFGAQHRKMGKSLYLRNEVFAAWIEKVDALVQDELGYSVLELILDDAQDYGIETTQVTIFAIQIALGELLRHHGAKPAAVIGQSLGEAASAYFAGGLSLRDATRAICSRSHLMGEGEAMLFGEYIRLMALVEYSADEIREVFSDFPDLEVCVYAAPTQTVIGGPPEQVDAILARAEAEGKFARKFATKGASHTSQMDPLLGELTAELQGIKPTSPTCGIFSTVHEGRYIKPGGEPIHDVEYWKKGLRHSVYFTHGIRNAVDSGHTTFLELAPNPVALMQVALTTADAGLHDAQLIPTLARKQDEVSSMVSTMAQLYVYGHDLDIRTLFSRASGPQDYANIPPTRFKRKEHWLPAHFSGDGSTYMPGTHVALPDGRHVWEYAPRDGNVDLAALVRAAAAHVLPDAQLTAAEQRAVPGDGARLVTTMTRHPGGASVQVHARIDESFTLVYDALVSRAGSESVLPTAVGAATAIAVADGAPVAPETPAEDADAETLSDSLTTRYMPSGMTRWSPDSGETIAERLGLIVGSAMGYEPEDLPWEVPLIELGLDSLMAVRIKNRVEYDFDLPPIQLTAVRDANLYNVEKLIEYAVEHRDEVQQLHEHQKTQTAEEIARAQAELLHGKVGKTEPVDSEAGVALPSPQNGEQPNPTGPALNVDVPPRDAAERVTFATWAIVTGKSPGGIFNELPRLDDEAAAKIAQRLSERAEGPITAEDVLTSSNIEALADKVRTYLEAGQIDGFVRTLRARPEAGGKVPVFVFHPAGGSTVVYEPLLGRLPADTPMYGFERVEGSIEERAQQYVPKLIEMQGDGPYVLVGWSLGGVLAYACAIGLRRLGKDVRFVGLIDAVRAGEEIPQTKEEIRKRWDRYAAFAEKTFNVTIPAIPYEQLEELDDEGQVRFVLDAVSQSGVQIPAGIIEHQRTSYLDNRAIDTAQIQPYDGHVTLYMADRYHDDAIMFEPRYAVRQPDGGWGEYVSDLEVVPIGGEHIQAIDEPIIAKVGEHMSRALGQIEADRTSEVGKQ

A: 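Enzyme assay of CoaBC with a phosphate dye (Biomol Green) read at 650 nm. Target: Coenzyme A biosynthesis protein CoaBC, Mycobacterium tuberculosis (UniProt P9WNZ1). Concentration: 30 µM. Higher reads as stronger inhibition, judged from the few compounds that gave an IC50. Most strong results did not repeat in a second test. Of about 67,000 compounds tested this way, about 40 (0.06%) reached 50% or more in at least one test.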
B: 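Enzyme assay of tryptophanyl-tRNA synthetase; the read-out is not stated. Target: Tryptophan-tRNA ligase, Mycobacterium tuberculosis (UniProt P9WFT3). Tested at 10 µM. Direction is not recorded; retested compounds ran higher, which suggests that high means inhibition. About 65,000 compounds were tested under these conditions; 0.098% (about 64) showed 50% or more at least once.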
C: 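Enzyme assay of the thioesterase domain of polyketide synthase 13; the read-out is not stated. Target: Polyketide synthase Pks13, Mycobacterium tuberculosis (UniProt I6X8D2). Tested at 30 µM. Higher reads as stronger inhibition (inferred from which compounds were picked for retests). Size under these conditions: about 67,000 compounds, about 300 of them at 50% or above in at least one test.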

compound | A | B | C
COc1cccc(CNC2CCSC2)c1OC (stereo not shown) | -2.526 | -1.536 | 0.1961
CCOCC1CN(S(C)(=O)=O)Cc2nn(C)cc21 (stereo not shown) | 1.724 | -2.208 | -9.932
CS(=O)(=O)NC(c1ccccc1)c1ccc2c(c1)CCCO2 (stereo not shown) | 9.206 | -7.863 | -8.188
Cc1cc(C(=O)NCc2cc(C)oc2C)no1 | -3.39 | 2.846 | 59.38
CCOCc1nn(CC2CC2)c2c1CN(C(=O)c1ccno1)CC2 | -0.2114 | -9.091 | -21.11
CCOCCN1CCN(CCCS(C)(=O)=O)CC1C (stereo not shown) | 4.337 | 3.837 | 3.312
CCCc1cc(C(=O)NC2CCCCNC2=O)[nH]n1 (stereo not shown) | -5.462 | 1.201 | -6.462
Nc1cc(CCC2CN(Cc3ccc4c(c3)OCCO4)CCO2)ccn1 (stereo not shown) | 1.942 | - | 1.4
Cc1cc(C(=O)N2C[C@H]3CC[C@@H]2CN(Cc2ccccn2)C3)nc(N)n1 | -2.297 | 7.163 | -8.282
O=C(CCN1CCOC(CNc2cccnn2)C1)NC1CCCCC1 (stereo not shown) | -2.867 | 14.79 | -0.02556
Cc1c(Cl)cccc1S(=O)(=O)NCC(O)c1cccn1C (stereo not shown) | -9.091 | -3.875 | -36
CC(C)c1nccn1CCCNC(=O)c1ccc(-c2cnn(C)c2)nc1 | 0.6048 | 2.825 | -19.63
CC(C)(C)c1cc(CN2CC[C@@H](NC(=O)c3cccnc3)[C@H](O)C2)n[nH]1 | 6.751 | -3.981 | 30.74
CCNC(=O)c1ccnc(NCC2COc3cc(OC)ccc3C2)c1 (stereo not shown) | -0.8772 | 3.258 | 9.369
CCN(CCNCc1cccc(C#N)c1)C1CC1 | -13.94 | -3.936 | -22.4
CCn1ccnc1CN1CCCN(C(=O)c2cnc(C)cn2)CC1 | -5.63 | -0.05679 | -5.111
Cc1nnc(CN(Cc2ccccc2C(F)(F)F)C2CC2)o1 | 5.835 | -1.125 | -29.02
CCc1cc(N2C[C@H](C3CC3)[C@@H](N)C2)nc(N2CCOCC2)n1 | 2.97 | -1.591 | -3.149
Cc1nn(C)c(C)c1CCNC(C)c1ccc(-n2ccnc2C)cc1 (stereo not shown) | 0.6329 | -2.57 | -29.93
Cc1ncsc1CCN1CCN(C(=O)c2ccc(=O)[nH]c2)CC1 | - | -2.167 | -27.57
COCc1ccc(C(=O)N2CC[C@@](O)(COC)C(C)(C)C2)o1 | 14.65 | 2.948 | -18.64
Cc1ncsc1C(=O)N1CCCC(c2nccn2Cc2cscn2)C1 (stereo not shown) | 1.327 | 2.681 | -23.46
CN(CC1CCC1)C(=O)c1ccc(-c2nc(C3CC3)n[nH]2)cc1 | 1.471 | -3.21 | -30.79
FC(F)(F)CCc1ccnc(NC2CCOC2)n1 (stereo not shown) | -0.7246 | 4.364 | -30.65
CC1=N[C@@]2(CC[C@@H]3CN(CC(=O)N(C)C)C[C@@H]32)C(=O)N1CC1CC1 | 6.266 | -1.798 | 22.94
CCn1nnc2c1C(COC)CN(C(=O)COc1ccccc1)C2 (stereo not shown) | -0.6211 | -6.754 | -12.81
CC(C)(C)c1n[nH]cc1CNCC1CCN(C2CC2)C1 (stereo not shown) | -16.27 | -1.65 | -
CCc1nc(C)c(C(=O)NCC2COc3cc(OC)ccc3C2)o1 (stereo not shown) | -0.5109 | 0 | -12.26
CS(=O)(=O)N1CCCC12CCCN(C(=O)c1ccc[nH]1)C2 (stereo not shown) | 1.869 | -3.483 | -17.87
Cc1ccc(CN2CCC3(CC(C(=O)NCC4CC4)=NO3)C2)cc1C (stereo not shown) | -0.3807 | 5.561 | -32.79
Cc1ncc(S(C)(=O)=O)c(N(C)CCCc2cnn(C)c2)n1 | -0.4819 | 5.113 | -9.862
Cc1nnsc1C(=O)NCc1cccnc1N1CCc2ccccc2C1 | -3.893 | 8.484 | -23.08
Cc1cc(CNC(=O)c2cc(C(C)C)n(C)n2)ccc1S(C)(=O)=O | -0.9804 | 5.062 | -33.15
CC(C)=CCN1C(=O)[C@H]2CC[C@@H]1CN(C(=O)CCc1nc(Cl)n[nH]1)C2 | 3.562 | 3.595 | -22.05
CCN(CC1CCOC1)C(=O)NCc1nnc2n1CCC2 (stereo not shown) | 1.01 | 1.806 | -1.886
c1csc(CN2CCO[C@H]3[C@H](OCCN4CCCC4)CC[C@@H]32)n1 | 5.455 | 2.734 | -1.632
Cc1ccc(C(=O)N2CC[C@H](N3CCOCC3)[C@H](CCCO)C2)cc1O | 8.497 | -2.434 | -46.02
CC(=O)N[C@@H](CC(C)C)C(=O)N1CCC(n2cc(CO)nn2)CC1 | -8.678 | -7.253 | -22.13
CCS(=O)(=O)NCCN(CCO)C1CCc2ccccc21 (stereo not shown) | 3.713 | 4.242 | -0.03753
Cc1nc(NCc2ccc(F)cc2)cc(C(=O)N2CCOCC2)n1 | 12.06 | 5.735 | -2.071
CN1CCN(c2ncccc2CNc2ncccc2C#N)CC1 | 0.4405 | 1.844 | -2.015
CCCc1nc(C)c(C(=O)NCCn2ccnc2)s1 | 0.7353 | -1.728 | -39.05
COc1ccc(CNC(Cc2ccsc2)c2ccc(C)cn2)cc1OC (stereo not shown) | 2.375 | -4.144 | 8.163
Cn1ccnc1Sc1ccc(N)cn1 | -14.06 | 5.421 | -32.87
Cc1cc(C(=O)N(CC2CCCO2)c2ccncc2)c(C)o1 (stereo not shown) | 4.722 | 1.555 | -15.1
CN(Cc1ccsc1)C(=O)COC(=O)c1cc(Cl)c[nH]1 | 1.094 | -1.768 | -10.09
Cc1cc(NC(=O)Cn2ccccc2=O)n(C)n1 | 8.871 | -6.901 | 3.792
Cc1c(C(=O)N2CCC2(C)C)nnn1-c1cccc2cccnc12 | 7.937 | -1.398 | -15.69
CN(C)C(=O)CCCn1ccc(NCc2ccc(C#N)cc2)n1 | 3.043 | -0.6744 | -32.54
COc1nccnc1-c1cccc(-c2ccn(CC3COCCO3)n2)c1 (stereo not shown) | 3.171 | -2.547 | -26.41
Clc1ccccc1OC1CCN(CC2CCOC2)CC1 (stereo not shown) | -7.125 | 1.41 | 1.137
CCN(Cc1ccc2c(c1)OCCO2)S(=O)(=O)N(C)C(C)C | -1.928 | -4.077 | -6.914
CCc1noc(CN(CC)C(=O)CC2C(=O)NCCN2CC(C)(C)C)n1 (stereo not shown) | -0.2123 | -0.2513 | -2.154
CCN1CCN(c2ccc(CNC(=O)c3cc(C)on3)cn2)CC1 | 1.305 | -6.853 | -7.134
CCC(C)CNc1ccc2oc(COC)nc2c1 (stereo not shown) | -1.449 | 12.76 | -8.806
CCn1cc(CN2CCCN(C3Cc4ccccc4C3)CC2)c(C)n1 | 2.751 | 0.6101 | -1.966
C[S+]([O-])c1nncn1CCc1ccccc1 (stereo not shown) | 3.194 | 11.03 | -4.154
CC[C@@]1(O)CCN(C(=O)c2ccc(-n3cnnc3)cc2)C[C@H]1O | 9.576 | -1.481 | -1.658
CCN(CC(=O)N(C)C)C(=O)C(C)(C)c1ccc2c(c1)OCCO2 | - | -0.2064 | -5.234
Cn1cccc1C(=O)NCc1cnc2n1CCN(CC1CC1)C2 | 2.932 | 2.766 | -0.3791
COc1ccsc1C(=O)N1CCCC1c1c(C)nn(C)c1OC (stereo not shown) | 4.645 | 1.801 | -14.11
CC(NC(=O)N1CCC[C@H]1CO)c1noc(-c2ccccc2)n1 (stereo partly shown) | -10.08 | -5.925 | -24.32
O=C(c1cccc(S(=O)(=O)NCCc2cscn2)c1)N1CCOCC1 | 1.809 | -1.812 | -6.529
COCCn1ccc(NC(=O)Nc2ccncc2)n1 | 7.789 | -0.3298 | -15.04
Cc1ccccc1CCNC(=O)N1CCCC(c2nncn2C)C1 (stereo not shown) | 1.053 | 0.6595 | 3.944
CC1(C)CN(C(CNS(N)(=O)=O)c2ccc(Cl)cc2)CCO1 (stereo not shown) | 2.679 | -9.391 | -9.061
NS(=O)(=O)Cc1cccc(C(=O)N2CCCC(n3cccn3)C2)c1 (stereo not shown) | -0.2632 | 0.4011 | -4.524

The first 7 entries again:

For COc1cccc(CNC2CCSC2)c1OC (stereo not shown) the result was A: -2.526%; B: -1.536%; C: 0.1961%.
For CCOCC1CN(S(C)(=O)=O)Cc2nn(C)cc21 (stereo not shown) the result was A: 1.724%; B: -2.208%; C: -9.932%.
For CS(=O)(=O)NC(c1ccccc1)c1ccc2c(c1)CCCO2 (stereo not shown) the result was A: 9.206%; B: -7.863%; C: -8.188%.
For Cc1cc(C(=O)NCc2cc(C)oc2C)no1 the result was A: -3.39%; B: 2.846%; C: 59.38%.
For CCOCc1nn(CC2CC2)c2c1CN(C(=O)c1ccno1)CC2 the result was A: -0.2114%; B: -9.091%; C: -21.11%.
For CCOCCN1CCN(CCCS(C)(=O)=O)CC1C (stereo not shown) the result was A: 4.337%; B: 3.837%; C: 3.312%.
For CCCc1cc(C(=O)NC2CCCCNC2=O)[nH]n1 (stereo not shown) the result was A: -5.462%; B: 1.201%; C: -6.462%.

Source: ChEMBL document CHEMBL3988442, “University of Dundee, Small-Polar-MMV Screening Library” (2021).